The results in this text go back to patent publication US11603373B2, “TDO2 and IDO1 inhibitors” (Genentech, Inc., priority 2017, dated 2023).

Amino acid sequences for entries named in this document (tags omitted).
UniProt P14902, whole entry: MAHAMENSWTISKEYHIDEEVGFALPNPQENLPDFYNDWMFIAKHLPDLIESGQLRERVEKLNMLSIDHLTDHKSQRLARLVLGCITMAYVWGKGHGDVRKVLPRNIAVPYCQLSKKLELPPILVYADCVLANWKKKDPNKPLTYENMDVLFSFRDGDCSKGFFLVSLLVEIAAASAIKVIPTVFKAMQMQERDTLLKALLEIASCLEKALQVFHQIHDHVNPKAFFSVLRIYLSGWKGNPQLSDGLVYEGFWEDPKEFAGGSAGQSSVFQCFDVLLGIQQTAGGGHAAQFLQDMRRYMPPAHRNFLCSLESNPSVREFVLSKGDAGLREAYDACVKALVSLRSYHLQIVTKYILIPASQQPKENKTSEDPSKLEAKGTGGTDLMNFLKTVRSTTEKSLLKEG
UniProt P48775, whole entry: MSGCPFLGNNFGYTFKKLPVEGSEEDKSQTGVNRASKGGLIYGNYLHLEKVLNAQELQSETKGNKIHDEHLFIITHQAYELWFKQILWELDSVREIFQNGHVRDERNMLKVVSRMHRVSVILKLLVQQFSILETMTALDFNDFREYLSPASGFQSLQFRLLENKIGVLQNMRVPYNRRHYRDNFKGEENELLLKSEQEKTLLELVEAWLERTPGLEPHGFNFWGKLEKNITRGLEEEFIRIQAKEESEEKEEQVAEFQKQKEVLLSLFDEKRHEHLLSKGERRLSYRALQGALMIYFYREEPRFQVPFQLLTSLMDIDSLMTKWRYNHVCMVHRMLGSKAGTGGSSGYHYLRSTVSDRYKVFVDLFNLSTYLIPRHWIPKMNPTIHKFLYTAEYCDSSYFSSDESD

pEC50: −log10 of the molar value. Structures were worked out from names or drawings and are uncertain.

In test [1] the target is IDO1 (A172+IFNg cells, high IDO expressing cells) (Homo sapiens, UniProt P14902). Description: NFK GreenScreen cell assay, inhibition of IDO in A172+IFNg cells. The note with it: read-out: IDO cell Fluor EC50. The text has this: (§1) The NFK GreenScreen™ (NTRC, Netherlands) uses a specific chemical probe that binds to N-Formylkynurenine (NFK), a product of tryptophan catabolism facilitated by IDO or TDO and causes fluorescence at 510 nm when excited at 410 nm. The assay is used to assess compound inhibition of TDO and IDO leading to decreased levels of NFK in SW48 cells (high TDO expressing cells) and to determine whether compounds are selective against A172+IFNg cells (high IDO expressing cells) or are dual inhibitors in cells. The assay is multiplexed with Cell Titer-Glo® (Promega) to determine if compounds are cytotoxic. Briefly, SW48 or A172 cells are harvested in growth media, RPMI 1640 with 10% FBS, 2 mM L-glutamine, and 1× pen/strep. Cells are re-suspended in assay media, tryptophan-free RPMI 1640 supplemented with 2% dialyzed FBS, 2 mM L-glutamine, and 1× pen/strep. Cells are counted on a Vi-Cell (Beckman Coulter). SW48 cells are diluted to 1×10^6 cells/ml in assay media. […] Plates are sealed and incubated at 37° C., 5% CO2 for 5 hours, then read on a PHERAstar® (BMG labtech). Data are analyzed by normalizing to DMSO and high inhibitor controls. After the plates have been read for NFK green, 25 ul of Cell Titer-Glo® (Promega) are added to each well, incubated for 15 minutes at room temperature, and read on the Envision (Perkin Elmer). Cell Titer-Glo data are analyzed by normalizing to the DMSO controls. […]

In test [2] the target is TDO2 (SW48 cells, high TDO expressing cells) (Homo sapiens, UniProt P48775). Description: NFK GreenScreen cell assay, inhibition of TDO in SW48 cells. As to conditions: read-out: TDO2 Cell Fluor EC50.
Excerpt: as §1

The term pEC50 denotes the EC50 on a negative log10 scale, so that one unit is a factor of ten.

Take `O=C(C1CC1)N1CCC2(CC[C@@H]([C@H]3c4ccccc4-c4cncn43)[C@H]2O)CC1` (single isomer, unassigned): the pEC50 in test [1] was 6.85; in test [2] it was 7.00.
